In PubChem BioAssay AID200 (DTP/NCI, 2004):
The list shows only some results of the screen, not a fair sample: it gathers tests that were run many times, whatever their T/C, doses with no T/C, and many T/C values between a quarter and a half above the control. Other doses and runs of a compound stand elsewhere. T/C gives the treated animals as a percentage of the vehicle group. Some doses have a count of surviving animals in place of a T/C: the source holds a T/C of zero for them, seemingly a mark for toxic or unscored doses. Some doses without a T/C left all or most animals alive at the check, yet need not have been tolerated: survival well below the control is almost never listed, so the zero probably covers shortened survival too. Counts of survivors are from the toxicity check (mostly the fifth day) where no day follows; animals may have died later. Schedule codes are those of the source, taken here to give the interval after Q, in days (D) or hours (H), and the number of doses after X. Some doses were run more than once; their values stand side by side, smallest first. Where survival is the endpoint, the PubChem record calls one and a half times the control and up active, and a quarter to a half above the control has no call in these data; cut-offs in other NCI protocols can differ. Some T/C values are followed by the survivors on the day toxicity was checked, most often the fifth; where none is given, no animal had died by that day.

Tested on: B6C3F1 mice, B16 melanoma ip, median survival T/C
Test: NCI In Vivo Anticancer Drug Screen. Data for tumor model B16 Melanoma (intraperitoneal) in B6C3F1 mice
Settings: T/C endpoint: median survival time, higher T/C = longer survival
Experimental: The antitumor activity of compounds was measured in mice bearing transplantable tumors. Survival or tumor size were measured and the results are expressed as the measurement made in the treated group (T) divided by the measurement made in the vehicle treated control group (C). The tumor model used in this assay is B16 Melanoma (intraperitoneal) in B6C3F1 mice

[1] = dose: 25.0 mg/kg/injection, schedule: Q01DX009 (ip), vehicle: Klucel (hydroxypropylcellulose) (HPC)
[2] = dose: 400.0 mg/kg/injection, schedule: Q01DX009 (ip), vehicle: Klucel (hydroxypropylcellulose) (HPC)
[3] = dose: 25.0 mg/kg/injection, schedule: Q01DX009 (ip), vehicle: saline with Tween-80
[4] = dose: 50.0 mg/kg/injection, schedule: Q01DX009 (ip), vehicle: saline with Tween-80
[5] = dose: 100.0 mg/kg/injection, schedule: Q01DX009 (ip), vehicle: saline with Tween-80
[6] = dose: 100.0 mg/kg/injection, schedule: Q01DX009 (ip), vehicle: saline

## [N-]=[N+]=CC(=O)CCC(=O)C=[N+]=[N-]
dose: 3.12 mg/kg/injection, schedule: Q01DX009 (ip), vehicle: DMSO
  survivor count: 7 of 10
dose: 6.25 mg/kg/injection, schedule: Q01DX009 (ip), vehicle: DMSO
  survivor count: 9 of 10
dose: 12.5 mg/kg/injection, schedule: Q01DX009 (ip), vehicle: DMSO
  survivor count: 7 of 10
dose: 25.0 mg/kg/injection, schedule: Q01DX009 (ip), vehicle: DMSO
  survivor count: 1 of 10
dose: 50.0 mg/kg/injection, schedule: Q01DX009 (ip), vehicle: DMSO
  survivor count: 1 of 10

## CCN(CC)CCCNc1nccc2c(C)c3[nH]c4ccncc4c3cc12
dose: 12.0 mg/kg/injection, schedule: Q01DX009 (ip), vehicle: other
  survivor count: 8 of 10

## CCCCNc1nc(N)nc(Nc2ccc(Br)cc2)c1N=O
[1]
  T/C: 132 % of control

## CC(C)C(NC(=O)OCC1c2ccccc2-c2ccccc21)C(=O)O (stereo not given)
[2]
  survivor count: 5 of 10

## CN=S(=O)(OCCCCCOS(=O)(=NC)c1ccccc1)c1ccccc1 (stereo not given)
[3]
  survivor count: 7 of 7
[4]
  T/C: 147 % of control
  survivor count: 4 of 6
[5]
  survivor count: 4 of 6

## COc1cc2c(c(OC)c1OC)-c1c(cc3c(c1OC)OCO3)CC(C)C(C)(O)C2OC(=O)c1ccccc1 (stereo not given)
dose: 400.0 mg/kg/injection, schedule: Q01DX009 (ip), vehicle: saline + Tween-80 + alcohol
  survivor count: 10 of 10

## OCC1OC(n2cnc3c(SCc4ccccc4)ncnc32)C(O)C1O (stereo not given)
dose: 300.0 mg/kg/injection, schedule: Q01DX009 (ip), vehicle: saline with Tween-80
  survivor count: 8 of 10

## O=c1[nH]c(=O)n([C@H]2CCCO2)cc1F
dose: 400.0 mg/kg/injection, schedule: Q01DX009 (ip), vehicle: suspension in saline
  survivor count: 10 of 10

## Oc1c(Cl)cc(Cl)cc1C=NCCSc1ccc(Cl)cc1
[2]
  survivor count: 0 of 10 and 5 of 10

## NC(=S)c1ncn(C2OC(COC=O)C(OC=O)C2OC=O)c1NC=O (stereo not given)
[2]
  survivor count: 10 of 10

## CCC1=C[C@H]2CN(CCc3c([nH]c4ccccc34)[C@@](OC(C)=O)(c3cc4c(cc3OC)N(C)[C@H]3[C@@](O)(C(=O)NCCSc5ccccc5)[C@H](O)[C@]5(CC)C=CCN6CC[C@]43[C@@H]65)C2)C1
dose: 0.5 mg/kg/injection, schedule: Q01DX009 (ip), vehicle: water
  T/C: 132 % of control
dose: 4.0 mg/kg/injection, schedule: Q01DX009 (ip), vehicle: water
  T/C: 145 % of control

## O=c1oc2c(O)c(O)cc3c(=O)oc4c(O)c(O)cc1c4c23
dose: 3.12 mg/kg/injection, schedule: Q01DX009 (ip), vehicle: Klucel (hydroxypropylcellulose) (HPC)
  T/C: 125 % of control
dose: 6.25 mg/kg/injection, schedule: Q01DX009 (ip), vehicle: Klucel (hydroxypropylcellulose) (HPC)
  survivor count: 10 of 10
dose: 12.5 mg/kg/injection, schedule: Q01DX009 (ip), vehicle: Klucel (hydroxypropylcellulose) (HPC)
  T/C: 126 and 131 % of control
[1]
  survivor count: 10 of 10
dose: 50.0 mg/kg/injection, schedule: Q01DX009 (ip), vehicle: Klucel (hydroxypropylcellulose) (HPC)
  T/C: 136 % of control [9 of 10 alive]
dose: 200.0 mg/kg/injection, schedule: Q01DX009 (ip), vehicle: Klucel (hydroxypropylcellulose) (HPC)
  survivor count: 9 of 10
[2]
  survivor count: 3 of 10 and 10 of 10

## CCN(CC)CCOC(=O)Cc1cccc2c(=O)cc(-c3ccccc3)oc12
[6]
  T/C: 127 % of control
  survivor count: 6 of 10
dose: 200.0 mg/kg/injection, schedule: Q01DX009 (ip), vehicle: saline
  survivor count: 2 of 10 and 6 of 10
dose: 400.0 mg/kg/injection, schedule: Q01DX009 (ip), vehicle: saline
  survivor count: 0 of 10

## CCCC(NC(=O)OCc1ccccc1)C(=O)O (stereo not given)
dose: 400.0 mg/kg/injection, schedule: Q01DX009 (ip), vehicle: saline with Tween-80
  survivor count: 9 of 10

## CCC(C)C(=O)O[C@H]1C(=O)O[C@@H]2C[C@H]3C(C)=CC(=O)[C@@H](O)[C@]3(C)[C@H]3[C@@H](O)[C@H](O)[C@@]4(C)OC[C@]32[C@@H]14 (stereo not given in full)
dose: 0.5 mg/kg/injection, schedule: Q01DX009 (ip), vehicle: saline + alcohol
  T/C: 146 % of control
dose: 2.0 mg/kg/injection, schedule: Q01DX009 (ip), vehicle: saline + alcohol
  T/C: 134 % of control
dose: 4.0 mg/kg/injection, schedule: Q01DX009 (ip), vehicle: saline + alcohol
  T/C: 145 % of control

## COc1cccc2c1C(=O)c1c(O)c3c(c(O)c1C2=O)C[C@@](O)(C(=O)CO)C[C@@H]3OC1CC(N)CC(C)O1 (stereo not given in full)
dose: 3.0 mg/kg/injection, schedule: Q01DX009 (ip), vehicle: water
  survivor count: 10 of 10
dose: 6.0 mg/kg/injection, schedule: Q01DX009 (ip), vehicle: water
  survivor count: 9 of 10

## BrC1c2cccc3cccc(c23)C1Br (stereo not given)
dose: 6.25 mg/kg/injection, schedule: Q01DX009 (ip), vehicle: saline with Tween-80
  T/C: 135 % of control
dose: 12.5 mg/kg/injection, schedule: Q01DX009 (ip), vehicle: saline with Tween-80
  T/C: 127 % of control
[3]
  T/C: 133 and 137 % of control
[4]
  T/C: 134 % of control
[5]
  T/C: 144 % of control
  survivor count: 10 of 10
dose: 200.0 mg/kg/injection, schedule: Q01DX009 (ip), vehicle: saline with Tween-80
  survivor count: 5 of 10 and 10 of 10

## COc1cccc2c1C(=O)c1c(O)c3c(c(O)c1C2=O)C[C@@](O)(C(=O)CO)C[C@@H]3OC1CC(N2CCOCC2C#N)C(O)C(C)O1 (stereo not given in full)
dose: 75.0 micrograms/kg/injection, schedule: Q01DX001 (ip), vehicle: water
  survivor count: 3 of 10
dose: 150.0 micrograms/kg/injection, schedule: Q01DX001 (ip), vehicle: water
  survivor count: 0 of 10
